Reference: patent US20060287337A1
These are yes or no findings as the source states them, for the method shown. Some results given as binding are weak or reduced against the parent protein; the word gives no strength.

Chains of the proteins cited; added tags and fusions are not shown. Lines headed by an entry give the natural chain unless they say otherwise; changes in a name come on top.
UniProt Q7Z6J0: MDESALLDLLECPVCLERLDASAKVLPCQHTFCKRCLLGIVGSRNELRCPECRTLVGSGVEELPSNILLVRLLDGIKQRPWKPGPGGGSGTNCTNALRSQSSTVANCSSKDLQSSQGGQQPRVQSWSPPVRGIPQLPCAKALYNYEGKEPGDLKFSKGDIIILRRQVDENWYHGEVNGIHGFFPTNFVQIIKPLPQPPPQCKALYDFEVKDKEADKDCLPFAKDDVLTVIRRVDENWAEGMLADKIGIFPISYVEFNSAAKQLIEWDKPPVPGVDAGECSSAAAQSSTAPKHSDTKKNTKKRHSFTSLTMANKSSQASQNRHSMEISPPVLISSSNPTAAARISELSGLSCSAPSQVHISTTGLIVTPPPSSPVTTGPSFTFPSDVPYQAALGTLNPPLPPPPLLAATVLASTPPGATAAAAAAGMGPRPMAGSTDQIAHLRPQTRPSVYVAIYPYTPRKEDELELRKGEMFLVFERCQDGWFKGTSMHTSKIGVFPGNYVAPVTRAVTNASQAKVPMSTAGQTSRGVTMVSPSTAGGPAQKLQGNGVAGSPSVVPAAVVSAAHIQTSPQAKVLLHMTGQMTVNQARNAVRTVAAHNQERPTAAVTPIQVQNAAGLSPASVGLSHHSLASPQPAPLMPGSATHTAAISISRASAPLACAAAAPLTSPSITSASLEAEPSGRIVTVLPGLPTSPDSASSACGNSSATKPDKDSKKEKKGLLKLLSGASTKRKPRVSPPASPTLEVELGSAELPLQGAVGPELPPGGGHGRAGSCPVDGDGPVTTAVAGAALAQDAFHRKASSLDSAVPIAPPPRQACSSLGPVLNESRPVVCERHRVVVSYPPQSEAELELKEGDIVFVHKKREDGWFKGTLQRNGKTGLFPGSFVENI
UniProt P10644: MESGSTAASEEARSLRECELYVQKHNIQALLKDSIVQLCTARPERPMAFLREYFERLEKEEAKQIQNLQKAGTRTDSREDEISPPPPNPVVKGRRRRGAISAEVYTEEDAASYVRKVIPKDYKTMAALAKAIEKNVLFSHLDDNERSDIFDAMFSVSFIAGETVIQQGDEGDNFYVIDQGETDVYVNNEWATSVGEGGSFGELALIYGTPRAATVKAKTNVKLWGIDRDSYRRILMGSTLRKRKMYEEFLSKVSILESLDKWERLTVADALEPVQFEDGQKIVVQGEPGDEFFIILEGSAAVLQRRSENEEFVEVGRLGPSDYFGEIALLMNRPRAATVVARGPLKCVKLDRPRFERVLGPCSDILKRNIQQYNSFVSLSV
UniProt Q13191: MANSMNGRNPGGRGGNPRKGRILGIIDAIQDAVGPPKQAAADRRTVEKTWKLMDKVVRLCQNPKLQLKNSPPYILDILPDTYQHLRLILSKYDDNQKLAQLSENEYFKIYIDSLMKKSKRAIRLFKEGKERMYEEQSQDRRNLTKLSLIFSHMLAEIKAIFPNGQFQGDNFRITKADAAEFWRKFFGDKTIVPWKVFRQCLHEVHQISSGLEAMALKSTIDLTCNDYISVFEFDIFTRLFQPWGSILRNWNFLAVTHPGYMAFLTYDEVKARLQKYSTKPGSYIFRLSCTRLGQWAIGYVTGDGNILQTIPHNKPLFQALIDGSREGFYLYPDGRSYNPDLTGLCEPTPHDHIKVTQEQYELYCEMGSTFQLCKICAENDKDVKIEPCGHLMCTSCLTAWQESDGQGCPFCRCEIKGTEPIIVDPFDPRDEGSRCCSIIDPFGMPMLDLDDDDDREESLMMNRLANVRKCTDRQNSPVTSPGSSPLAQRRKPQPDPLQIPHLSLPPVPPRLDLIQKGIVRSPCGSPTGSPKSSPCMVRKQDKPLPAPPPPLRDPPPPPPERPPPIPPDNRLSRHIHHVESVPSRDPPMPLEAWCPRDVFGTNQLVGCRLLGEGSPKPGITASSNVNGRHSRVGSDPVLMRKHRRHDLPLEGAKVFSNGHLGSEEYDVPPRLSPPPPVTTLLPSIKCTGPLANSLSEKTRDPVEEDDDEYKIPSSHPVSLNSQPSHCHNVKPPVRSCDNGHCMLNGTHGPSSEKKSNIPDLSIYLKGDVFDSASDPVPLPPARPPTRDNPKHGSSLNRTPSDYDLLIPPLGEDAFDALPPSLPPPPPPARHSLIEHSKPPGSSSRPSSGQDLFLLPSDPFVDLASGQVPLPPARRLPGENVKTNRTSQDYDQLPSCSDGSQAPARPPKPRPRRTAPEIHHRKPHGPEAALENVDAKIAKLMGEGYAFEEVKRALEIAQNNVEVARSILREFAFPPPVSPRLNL
UniProt Q9H3P7: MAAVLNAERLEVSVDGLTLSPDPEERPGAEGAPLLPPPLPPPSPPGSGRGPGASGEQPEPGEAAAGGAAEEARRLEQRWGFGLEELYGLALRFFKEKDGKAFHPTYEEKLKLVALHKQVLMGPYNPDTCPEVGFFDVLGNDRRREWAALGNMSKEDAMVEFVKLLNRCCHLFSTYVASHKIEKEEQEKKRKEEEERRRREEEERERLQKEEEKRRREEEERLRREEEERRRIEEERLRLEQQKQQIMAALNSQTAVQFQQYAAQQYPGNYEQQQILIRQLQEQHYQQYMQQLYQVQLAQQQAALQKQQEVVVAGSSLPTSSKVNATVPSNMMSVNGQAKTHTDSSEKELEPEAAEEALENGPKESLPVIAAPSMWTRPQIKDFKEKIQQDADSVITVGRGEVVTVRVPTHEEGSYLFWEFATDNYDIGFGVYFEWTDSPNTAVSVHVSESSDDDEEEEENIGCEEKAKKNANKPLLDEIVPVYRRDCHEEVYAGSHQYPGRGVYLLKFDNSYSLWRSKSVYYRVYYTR

Experiments:
[1] = molecular target: GAL4 POSHdR bait (pPL269-pGBK-T7 GAL4 POSHdR; aa 53-888 of POSH, RING domain deleted) (human) (UniProt Q7Z6J0); assay: yeast two-hybrid screen, GAL4-BD POSHdR bait against HeLa cDNA GAL4-AD prey library
[2] = molecular target: GAL4 POSHdR bait (pPL269-pGBK-T7 GAL4 POSHdR; aa 53-888 of POSH, RING domain deleted) (human) (UniProt Q7Z6J0); assay: yeast two-hybrid screen (Table 7: POSH-APs Identified by Yeast Two-Hybrid Screen)
[3] = molecular target: GAL4 POSHdR bait (pPL269-pGBK-T7 GAL4 POSHdR; aa 53-888 of POSH, RING domain deleted) (human) (UniProt Q7Z6J0); assay: yeast two-hybrid screen, GAL4-BD POSHdR bait against HeLa cDNA GAL4-AD prey library; remark: listed apart in the source
[4] = molecular target: GAL4 POSHdR bait (pPL269-pGBK-T7 GAL4 POSHdR; aa 53-888 of POSH, RING domain deleted) (human) (UniProt Q7Z6J0); assay: yeast two-hybrid screen, GAL4-BD POSHdR bait against HeLa cDNA GAL4-AD prey library; growth dependent on bait plasmid

binding [1] | binding [3] | Molecule | other results
binds |  | PRKAR1A (Hs.280342), regulatory subunit of PKA, HeLa cDNA prey clone (from UniProt P10644 1-381) | 
binds |  | Human CblB protein in 3Gd114 (translation of cbl-B clone 3Gd114) (from UniProt Q13191 634-927) | binding [2]: binds
binds |  | GOCAP1 golgi complex associated protein 1, 60 kDa (clone 3Gd111) (from UniProt Q9H3P7 1-528) | binding [2]: binds
 | binds | SPG20 (spartin) (Hs.205088), HeLa cDNA prey clone (protein, human, UniProt Q8N0X7 1-666, looked up, not shown: large carriers) MEQEPQNGEPAEIKIIREAYKKAFLFVNKGLNTDELGQKEEAKNYYKQGIGHLLRGISISSKESEHTGPGWESARQMQQKMKETLQNVRTRLEILEKGLATSLQNDLQEVPKLYPEFPPKDMCEKLPEPQSFSSAPQHAEVNGNTSTPSAGAVAAPASLSLPSQSCPAEAPPAYTPQAAEGHYTVSYGTDSGEFSSVGEEFYRNHSQPPPLETLGLDADELILIPNGVQIFFVNPAGEVSAPSYPGYLRIVRFLDNSLDTVLNRPPGFLQVCDWLYPLVPDRSPVLKCTAGAYMFPDTMLQAAGCFVGVVLSSELPEDDRELFEDLLRQMSDLRLQANWNRAEEENEFQIPGRTRPSSDQLKEASGTDVKQLDQGNKDVRHKGKRGKRAKDTSSEEVNLSHIVPCEPVPEEKPKELPEWSEKVAHNILSGASWVSWGLVKGAEITGKAIQKGASKLRERIQPEEKPVEVSPAVTKGLYIAKQATGGAAKVSQFLVDGVCTVANCVGKELAPHVKKHGSKLVPESLKKDKDGKSPLDGAMVVAASSVQGFSTVWQGLECAAKCIVNNVSAETVQTVRYKYGYNAGEATHHAVDSAVNVGVTAYNINNIGIKAMVKKTATQTGHTLLEDYQIVDNSQRENQEGAANVNVRGEKDEQTKEVKEAKKKDK | 
 | binds | ARHV (CHP) (Hs.163834), HeLa cDNA prey clone (protein, human, UniProt Q96L33 1-236, looked up, not shown: large carriers) MPPRELSEAEPPPLRAPTPPPRRRSAPPELGIKCVLVGDGAVGKSSLIVSYTCNGYPARYRPTALDTFSVQVLVDGAPVRIELWDTAGQEDFDRLRSLCYPDTDVFLACFSVVQPSSFQNITEKWLPEIRTHNPQAPVLLVGTQADLRDDVNVLIQLDQGGREGPVPQPQAQGLAEKIRACCYLECSALTQKNLKEVFDSAILSAIEHKARLEKKLNAKGVRTLSRCRWKKFFCFV | 
 | binds | GOSR2 (Hs.432552), HeLa cDNA prey clone (protein, human, UniProt O14653 1-212, looked up, not shown: large carriers) MDPLFQQTHKQVHEIQSCMGRLETADKQSVHIVENEIQASIDQIFSRLERLEILSSKEPPNKRQNARLRVDQLKYDVQHLQTALRNFQHRRHAREQQERQREELLSRTFTTNDSDTTIPMDESLQFNSSLQKVHNGMDDLILDGHNILDGLRTQRLTLKGTQKKILDIANMLGLSNTVMRLIEKRAFQDKYFMIGGMLLTCVVMFLVVQYLT | binding [4]: binds
 | binds | HERPUD1 (Hs.146393), HeLa cDNA prey clone (protein, human, UniProt Q15011 1-391, looked up, not shown: large carriers) MESETEPEPVTLLVKSPNQRHRDLELSGDRGWSVGHLKAHLSRVYPERPRPEDQRLIYSGKLLLDHQCLRDLLPKQEKRHVLHLVCNVKSPSKMPEINAKVAESTEEPAGSNRGQYPEDSSSDGLRQREVLRNLSSPGWENISRPEAAQQAFQGLGPGFSGYTPYGWLQLSWFQQIYARQYYMQYLAATAASGAFVPPPSAQEIPVVSAPAPAPIHNQFPAENQPANQNAAPQVVVNPGANQNLRMNAQGGPIVEEDDEINRDWLDWTYSAATFSVFLSILYFYSSLSRFLMVMGATVVMYLHHVGWFPFRPRPVQNFPNDGPPPDVVNQDPNNNLQEGTDPETEDPNHLPPDRDVLDGEQTSPSFMSTAWLVFKTFFASLLPEGPPAIAN | 
 |  | RALA, HeLa cDNA prey clone (protein, human, UniProt P11233 1-206, looked up, not shown: large carriers) MAANKPKGQNSLALHKVIMVGSGGVGKSALTLQFMYDEFVEDYEPTKADSYRKKVVLDGEEVQIDILDTAGQEDYAAIRDNYFRSGEGFLCVFSITEMESFAATADFREQILRVKEDENVPFLLVGNKSDLEDKRQVSVEEAKNRAEQWNVNYVETSAKTRANVDKVFFDLMREIRARKMEDSKEKNGKKKRKSLAKRIRERCCIL | binding [4]: binds
